At least one structure is not confirmed: it was looked up by name or label, or the drawing left a doubt.
Legend:
[1] = test system: pro-MMP-9; test: Gelatin zymography of RM72 culture supernatant, MMP-9; format: cell-based, human; settings: RM72 cells; DSF 16 μM, DXR 210 nM, Gra 32 nM, Pyt 5 μM; 48 hours
Procedure: Gelatin zymography with the culture supernatant of RM72 cells treated with DSF, DXR, Gra, Pyt, pDTC, HPM, and DMSO (vehicle) was performed. Specifically, RM72 cells (2×10^4 cells per well) seeded onto 96-well plates were incubated for 24 hours, and the medium was replaced with a medium containing each of the above compounds (DSF: 16 μM, DXR: 210 nM, Gra: 32 nM, Pyt: 5 μM, HPM: 1 μg/ml, pDTC: 20 μM). After incubated for 48 hours, the medium was replaced with 100 μl of DMEM containing 0.1% FBS and incubated for additional 12 hours. The culture supernatant was harvested, cleared of a solid matter by centrifugation, and analyzed by gelatin zymography in accordance with the method described in literature (Takahashi C, Sheng Z, Horan. T P, Kitayama H, Maki M, Hitomi K, Kitaura Y, Takai S, Sasahara R M, Horimoto A, Ikawa Y, Ratzkin B J, Arakawa T, Noda M. Regulation of matrix metalloproteinase-9 and inhibition of tumor invasion by the membrane-anchored glycoprotein RECK. Proc Natl Acad Sci USA 1998; 95: 13221-13226). The band intensities were normalized against the cell number determined by the SF assay.

[2] = test system: MMP-2; test: Gelatin zymography of RM72 culture supernatant, MMP-2; format: cell-based, human; settings: RM72 cells, DSF 16 μM, 48 hours
[3] = test system: RZmet3 cells; test: Morphology and random migration of RZmet3 cells by time-lapse video-microscopy; format: cell-based, human; settings: 10 μM, 24 hours
[4] = test system: RM72 cells; format: in vivo
Procedure: RM72 cells (3×10^6 cells) suspended in 0.1 ml of PBS were subcutaneously injected into the right posterior flank of Balb/c nude mice (6 weeks old, male, Charles River). […]. After 14-day treatment, the mice were anesthetized and their bioluminescence was recorded by the method described below. After the whole-body recording of the bioluminescence, the lung was resected, washed with PBS (−), and subjected to bioluminescence recording. The tumor size (length×width×height) was measured once a week. Statistical significance was assessed by Student's t-test.
Mice under anesthesia were intraperitoneally injected with 75 mg/kg of d-luciferin dissolved in PBS (−). Bioluminescence images were acquired with IVIS ImagingSystem (Xenogen) at 5 minutes after the injection (Wang S, El-Deiry W S. Requirement of p53 targets in chemosensitization of colonic carcinoma to death ligand therapy. Proc Natl Acad Sci USA 2003; 100: 15095-15100; Minn A J, Kang Y, Serganova I, Gupta G P, Giri D D, Doubrovin M, Ponomarev V, Gerald W L, Blasberg R, Massague J. Distinct organ-specific metastatic potential of individual breast cancer cells and primary tumors. J Clin Invest 2005; 115: 44-55). The photons emitted from the whole bodies or the isolated organs were collected for a period of 60 seconds and integrated. The images were analyzed using Living Image software (Xenogen).
The anti-tumorigenic and anti-metastatic activities of Pyt, Hr, Gra and Lyc were investigated with the same protocol as in Example 9. The experiment was conducted in two batches: Experiment 1 for three groups of a Pyt group, a Hr group and a vehicle group and Experiment 2 for three groups of a Gra group, a Lyc group and a vehicle group. The doses of the test compounds were set at two different quantities considered to be appropriate based on literature (see Tables 3 and 4).

[5] = 50 mg/kg/day intraperitoneal, 14-day treatment

With `CCN(CC)C(=S)SSC(=S)N(CC)CC` [Disulfiram] as the compound, how does the “pro-MMP-9 level in the culture supernatant” value [1] read?
Its value is “reduced”.

And the “level of intermediate/mature MMP-2” value [2]?
Its value is “reduced”.

And the “level of pro-MMP-2” value [2]?
Its value is “reduced”.

And the “cell flattening and spreading” value [3]?
The value was “induced flattening and spreading”.

And the “speed in random migration” value [3]?
Its value is “reduced the speed”.

What about the anti-metastatic activity [4, 5] of the same compound?
The anti-metastatic activity was “strong”.

What about the anti-tumorigenic activity [4, 5] of the same compound?
Its anti-tumorigenic activity is “weak”.

What about the anticancer activity ([4]; summary statement) of the same compound?
The anticancer activity was “confirmed”.

What about the “cancer metastasis suppressing activity” value ([4]; summary statement) of the same compound?
Its value is “confirmed”.
